PubChem BioAssay AID686937, Drosophila RNAi Screening Center, 2013
In all, the deposit lists about 23,000 reagents; this is an unselected part of those with a known target gene and a result. 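Reduced-secretion tags in replicate 1 do not always agree with the z-scores; no criterion for assigning the tags was given.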 The numbers tell different reagents against one gene apart. A plus sign joins genes that one reagent is predicted to hit. Not given: the amount of reagent.

- Purpose: 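Genes in the fly needed for secretion of protein constitutively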 (primary screen)
- Cells: Drosophila S2 cells expressing secreted horseradish peroxidase
- Knock-down reagent: long dsRNA against Drosophila genes
- Timing: about 5.5 days (5 days dsRNA, then 12 h reporter induction)
- Treatment: reporter expression induced after 5 days of dsRNA, read 12 h later; inducer not stated
- Detection: 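Chemiluminescent measurement of peroxidase in the medium 12 h after reporter induction, following 5 days of dsRNA, given as a z-score per plate; higher means more secretion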
- Scale: z-score: higher = more reporter secreted into medium

| predicted target | dsRNA no. | z-score, replicate 1 | z-score, replicate 2 | z-score, replicate 3 | z-score, replicate 4 | phenotype, replicate 1 |
| --- | --- | --- | --- | --- | --- | --- |
| Sod3 | 1 | 0.3 | 0.36 | – | – | – |
| CG14147 | 1 | 0.22 | 0.23 | – | – | – |
| CG30043 | 1 | 0.15 | 0.25 | – | – | – |
| CG11885 | 1 | 0.71 | 0.63 | – | – | – |
| CG13293 | 1 | 0.12 | 0.31 | – | – | – |
| CG10702 | 1 | 0.31 | 0.28 | – | – | – |
| CG34163 | 1 | 0.28 | 0.06 | – | – | – |
| Arpc3B | 1 | -0.8 | -1.95 | – | – | – |
| Sur | 1 | 0.24 | 0.23 | – | – | – |
| CG31556 (retired record) | 1 | 0.1 | -0.23 | 0.63 | -0.2 | – |
| CG31556 (retired record) | 2 | 0.28 | 0.21 | – | – | – |

In a second layout: entries from further up
predicted target,dsRNA no.,"z-score, replicate 1","z-score, replicate 2","z-score, replicate 3","z-score, replicate 4","phenotype, replicate 1"
CG14147,1,0.22,0.23,,,
CG30043,1,0.15,0.25,,,
CG11885,1,0.71,0.63,,,
CG13293,1,0.12,0.31,,,
CG10702,1,0.31,0.28,,,

The list goes on:
| predicted target | dsRNA no. | z-score, replicate 1 | z-score, replicate 2 | z-score, replicate 3 | z-score, replicate 4 | phenotype, replicate 1 |
| --- | --- | --- | --- | --- | --- | --- |
| Tbcd | 1 | 0.44 | 0.5 | – | – | – |
| Mst85C | 1 | 0.36 | 0.57 | – | – | – |
| CG13829 | 1 | 0.36 | 0.38 | – | – | – |
| spt4 | 1 | 0.15 | 0.4 | – | – | – |
| Polr3I | 1 | 0.07 | -0.32 | – | – | – |
| CG10184 | 1 | 0.21 | 0.38 | – | – | – |
| CG3902 | 1 | 0.51 | 0.62 | – | – | – |
| Lsd-2 | 1 | -5.8 | -0.09 | – | – | reduced secretion |
| Klp31E | 1 | 0.12 | 0.17 | – | – | – |
| Prosalpha2 | 1 | -3.53 | -4.49 | – | – | reduced secretion |
| CG1368 | 1 | 0.49 | 0.44 | – | – | – |
| h-cup + Rbp | 1 | -0.19 | 0.15 | – | – | – |
| PCID2 | 1 | -0.5 | -1.47 | – | – | – |
| Atg1 | 1 | 0.18 | 0.05 | – | – | – |
| Atg1 | 2 | 0.21 | 0.12 | – | – | – |
| CG17570 | 1 | 0.63 | 0.34 | – | – | – |
| CG17570 | 2 | -0.52 | 0.04 | – | – | – |
| CG4553 | 1 | -0.04 | 0.16 | – | – | – |
| CG10934 | 1 | 0.38 | 0.33 | – | – | – |
| Ipo9 | 1 | 0.25 | 0.2 | – | – | – |
| CG34198 | 1 | -3.09 | -2.17 | – | – | reduced secretion |
| ATPsynG | 1 | -3.7 | -0.37 | -0.28 | -2.12 | – |
